The results in this text go back to publication PMC6558219.

Assay [1] deals with T1, Interferon Regulatory Factor (IRF)9 (mouse (endogenous in primary VSMC)), Q61179.
T1 chain: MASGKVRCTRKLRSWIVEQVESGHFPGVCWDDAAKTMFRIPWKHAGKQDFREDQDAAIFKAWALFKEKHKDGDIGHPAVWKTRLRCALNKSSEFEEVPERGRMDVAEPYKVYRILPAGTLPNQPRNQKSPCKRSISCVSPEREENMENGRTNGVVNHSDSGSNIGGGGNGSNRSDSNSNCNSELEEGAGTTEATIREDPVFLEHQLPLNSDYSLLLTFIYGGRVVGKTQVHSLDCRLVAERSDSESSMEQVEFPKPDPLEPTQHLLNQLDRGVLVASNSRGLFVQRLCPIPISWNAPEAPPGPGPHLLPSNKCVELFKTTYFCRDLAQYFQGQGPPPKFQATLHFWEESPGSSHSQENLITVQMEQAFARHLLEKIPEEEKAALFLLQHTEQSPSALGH
Kind of assay: co-IP; lysates of primary WT mouse VSMC, untreated or treated with IFNα (8 h) or IFNγ (8 h); co-IP buffer 1% NP-40, 150 mM NaCl, 1 mM EDTA, 50 mM Tris HCl pH 7.5, 10% glycerol; immunoprecipitated with IRF9 or IRF1 antibodies overnight at 4°C, Dynabeads Protein A/G; Western blot with tSTAT1 and tSTAT2. To be noted: remark: other sources report otherwise. Background: In western blotting, separated proteins are transferred to a membrane and probed.

Assay [2] has as its target T2, IRF1 (mouse (endogenous in primary VSMC)), P15314.
T2 chain: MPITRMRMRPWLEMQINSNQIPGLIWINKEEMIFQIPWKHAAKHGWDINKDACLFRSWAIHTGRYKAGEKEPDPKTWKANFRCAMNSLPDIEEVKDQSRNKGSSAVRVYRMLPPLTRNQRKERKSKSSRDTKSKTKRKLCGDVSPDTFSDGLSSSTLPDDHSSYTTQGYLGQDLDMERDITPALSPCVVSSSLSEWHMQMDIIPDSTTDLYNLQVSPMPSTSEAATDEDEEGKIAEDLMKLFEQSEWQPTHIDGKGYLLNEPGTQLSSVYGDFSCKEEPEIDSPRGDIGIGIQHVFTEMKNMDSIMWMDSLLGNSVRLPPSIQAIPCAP
Described as above. As to conditions: remark: other sources report otherwise.

No constants are given. Whether binding was seen depends on the method and setting. In cells and extracts the contact can be indirect. Some results given as binding are weak or reduced against the parent protein; the word gives no strength.

B1: Signal Transducer and Activator of Transcription (STAT)1, P42225 1-749 (protein)
chain: MSQWFELQQLDSKFLEQVHQLYDDSFPMEIRQYLAQWLEKQDWEHAAYDVSFATIRFHDLLSQLDDQYSRFSLENNFLLQHNIRKSKRNLQDNFQEDPVQMSMIIYNCLKEERKILENAQRFNQAQEGNIQNTVMLDKQKELDSKVRNVKDQVMCIEQEIKTLEELQDEYDFKCKTSQNREGEANGVAKSDQKQEQLLLHKMFLMLDNKRKEIIHKIRELLNSIELTQNTLINDELVEWKRRQQSACIGGPPNACLDQLQTWFTIVAETLQQIRQQLKKLEELEQKFTYEPDPITKNKQVLSDRTFLLFQQLIQSSFVVERQPCMPTHPQRPLVLKTGVQFTVKSRLLVKLQESNLLTKVKCHFDKDVNEKNTVKGFRKFNILGTHTKVMNMEESTNGSLAAELRHLQLKEQKNAGNRTNEGPLIVTEELHSLSFETQLCQPGLVIDLETTSLPVVVISNVSQLPSGWASILWYNMLVTEPRNLSFFLNPPCAWWSQLSEVLSWQFSSVTKRGLNADQLSMLGEKLLGPNAGPDGLIPWTRFCKENINDKNFSFWPWIDTILELIKNDLLCLWNDGCIMGFISKERERALLKDQQPGTFLLRFSESSREGAITFTWVERSQNGGEPDFHAVEPYTKKELSAVTFPDIIRNYKVMAAENIPENPLKYLYPNIDKDHAFGKYYSRPKEAPEPMELDDPKRTGYIKTELISVSEVHPSRLQTTDNLLPMSPEEFDEMSRIVGPEFDSMMSTV
Take B1: the binding result is listed as “binds” in assay [1] and “no binding” in assay [2].
